According to paper PMC10598736, “Structural insights into Rad18 targeting by the SLF1 BRCT domains” (The Journal of Biological Chemistry, 2023):
No constants are given. Whether binding was seen depends on the method and setting.

Sequences of proteins named here, by UniProt entry; tags and fusion partners are left off. A change or cut given only in a name is not applied to a line headed by its entry.
UniProt Q9NS91: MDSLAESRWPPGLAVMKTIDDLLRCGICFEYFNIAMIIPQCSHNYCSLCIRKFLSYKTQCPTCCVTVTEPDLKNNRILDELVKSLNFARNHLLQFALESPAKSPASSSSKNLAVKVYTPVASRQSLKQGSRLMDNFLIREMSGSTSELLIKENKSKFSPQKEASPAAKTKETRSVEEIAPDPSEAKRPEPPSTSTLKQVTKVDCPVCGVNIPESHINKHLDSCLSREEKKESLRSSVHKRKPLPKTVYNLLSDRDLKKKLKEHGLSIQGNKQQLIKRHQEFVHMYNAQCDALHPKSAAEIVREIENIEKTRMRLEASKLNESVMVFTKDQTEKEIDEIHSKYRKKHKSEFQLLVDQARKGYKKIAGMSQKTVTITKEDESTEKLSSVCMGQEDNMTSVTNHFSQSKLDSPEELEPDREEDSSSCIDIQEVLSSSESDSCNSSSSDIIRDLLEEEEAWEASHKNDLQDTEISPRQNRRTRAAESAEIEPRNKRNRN

B1: SLF1 tandem BRCT repeat (SLF1^tBRCT), residues 1-199, wild type (domain or fragment, UniProt Q9BQI6 1-199, looked up)
chain: MEDGTPKHIIQMTGFKMEEKEALVKLLLKLDCTFIKSEKYKNCTHLIAERLCKSEKFLAACAAGKWILTKDYIIHSAKSGRWLDETTYEWGYKIEKDSRYSPQMQSAPKRWREELKRTGAPGAFHRWKVVLLVRTDKRSDSLIRVLEAGKANVILPKSSPSGITHVIASNARIKAEKEKDNFKAPFYPIQYLGDFLLEK
notes: SMC5/6 localization factor 1 (SLF1), tandem BRCT repeat at the N-terminus, residues 1-199; coding region optimized for E. coli and synthesized; also called WT; SMC5/6 localization factor 1 tBRCT; source: E. coli BL21 Rosetta (DE3), purified (Ni-NTA, heparin, gel filtration)

How the values were obtained:
[1] = target: T1, SLF1 tandem BRCT repeat (SLF1^tBRCT), residues 1-199, wild type (UniProt Q9BQI6); experiment: condition: 1.3 mM peptide injected into 0.1 mM SLF1^tBRCT; ITC; MicroCal ITC 200, 25 °C, 20 mM Tris (pH 7.5), 200 mM sodium chloride; 1.3 mM Rad18 peptide or 6 mM BRCTide injected into 0.1 mM (Rad18 peptides) or 0.2 mM (BRCTide) SLF1^tBRCT in the cell; three independent repeats; both purified
T1 sequence: B1 chain

[2] = target: full-length Rad18 S444E, strep-his-sumo-tagged (human) (UniProt Q9NS91); experiment: pull-down; his-strep-sumo-tagged Rad18 (50 μg) held on streptactin beads, incubated with 50 μg SLF1^tBRCT at 4 °C for 60 min; 20 mM Tris (pH 7.5), 200 mM sodium chloride, 2 mM DTT; eluted with D-desthiobiotin, SDS PAGE; both purified
[3] = target: full-length Rad18, wild type, strep-his-sumo-tagged (human) (UniProt Q9NS91); experiment: as above

| Molecule | binding [1] | binding [2] | binding [3] |
| --- | --- | --- | --- |
| Rad18-pS442-2IA peptide (I446A/I447A) (from UniProt Q9NS91 436-452) | no binding |  |  |
| Rad18-pS442-4A peptide (I446A/I447A/L450A/L451A) (from UniProt Q9NS91 436-452) | no binding |  |  |
| B1 |  | no binding (tested: 50 μg SLF1^tBRCT on 50 μg Rad18) | no binding (tested: 50 μg SLF1^tBRCT on 50 μg Rad18) |
